{"source": "patent US20040131981A1", "about": "“Color developing solution of silver halide color photographic photosensitive material and manufacturing method of color developing solution” (priority 2002, published 2004)", "origin": "cited, not measured here", "details": "Compound I, pH buffering agent of alkali part solution"}
{"smiles": "NCCCC(N)C(=O)O", "note": "(stereo not shown) [Compound I-18]", "values": [{"measurement": "Pka", "value": 10.73}]}
